1 compound from US8198291B2, “Intranasal opioid compositions” (University of Kentucky Research Foundation, priority 2000, dated 2012) can be followed below.

As for `CN1CC[C@]23c4c5ccc(O)c4O[C@H]2C(=O)CC[C@H]3[C@H]1C5.Cl` [hydromorphone HCL], the nasal irritation result (after 2 mg IN dose) was “not observed”. Further, for the setting “after single IN doses”, the “local administration effect of the formulation” value is recorded as “bitter taste”.
